## Cell number after 72 h of treatment

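Human melanoma cell lines in 1,536-well plates were treated with two drugs together for 72 h, then fixed, stained and imaged. Each value is the count of nuclei relative to DMSO-treated wells, in %, so that 100 equals the control. Concentrations were fixed for each drug; these are the lower of two levels, a fifth of the higher. The file gives one value for each pair and line, without errors, so small differences may be noise.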
Only some of the drugs and lines screened are listed, without regard to their results.

Every entry is a combination with nilotinib at 0.2 µM: Cc1cn(-c2cc(NC(=O)c3ccc(C)c(Nc4nccc(-c5cccnc5)n4)c3)cc(C(F)(F)F)c2)cn1

| Second drug | A101D |
|---|---|
| CC[C@]1(O)C[C@H]2CN(CCc3c([nH]c4ccccc34)[C@@](C(=O)OC)(c3cc4c(cc3OC)N(C=O)[C@H]3[C@@](O)(C(=O)OC)[C@H](OC(C)=O)[C@]5(CC)C=CCN6CC[C@]43[C@@H]65)C2)C1 at 0.0001 µM | 46.8 |
| O=C1NC(=O)/C(=C/c2ccc(-c3ccc(F)cc3O)o2)S1 at 1 µM | 97.4 |
| NC1(c2ccc(-c3nc4ccn5c(=O)[nH]nc5c4cc3-c3ccccc3)cc2)CCC1 at 0.4 µM | 92.2 |
| CC(C)CCN1c2nc(Nc3cc(F)c(O)c(F)c3)ncc2N(C)C(=O)C1C (centres undefined) at 0.2 µM | 81.2 |
| C[As](C)SC[C@H](NC(=O)CC[C@H](N)C(=O)O)C(=O)NCC(=O)O at 0.4 µM | 100 |
| Cc1cc([N+](=O)[O-])ccc1NS(=O)(=O)c1cc(Cl)ccc1Cl at 1 µM | 88.0 |
| NC(=O)Nc1cc(-c2cccc(F)c2)sc1C(=O)N[C@H]1CCCNC1 at 0.02 µM | 79.8 |
| Cn1cc(/C=C2\C(=O)Nc3cccnc32)c2ccccc21 at 0.4 µM | 92.5 |
| CCCCCCCCc1ccc(CCC(N)(CO)CO)cc1 at 2 µM | 97.7 |
| O=C(/C=C/c1cccnc1)NCCCCC1CCN(C(=O)c2ccccc2)CC1 at 0.01 µM | 94.8 |
| CCCCCCCCCCCCCCCCCCOP(=O)([O-])OC1CC[N+](C)(C)CC1 at 0.4 µM | 91.1 |
| CN(C)S(=O)(=O)c1ccc2c(c1)/C(=C/c1cc3c([nH]1)CCCC3)C(=O)N2 at 0.4 µM | 91.1 |
| CCc1ccc(CCOc2ccc(CC3SC(=O)NC3=O)cc2)nc1 (centres undefined) at 2 µM | 102 |
| COc1ccc(-c2ccc3c(N4CCOCC4)nc(N4C[C@@H](C)O[C@@H](C)C4)nc3n2)cc1CO at 0.02 µM | 103 |
| COc1ccc(COc2ccc(Cc3cnc(N)nc3N)cc2OC)cc1 at 1 µM | 103 |
| COc1ccc(C2=N[C@@H](c3ccc(Cl)cc3)[C@@H](c3ccc(Cl)cc3)N2C(=O)N2CCNC(=O)C2)c(OC(C)C)c1 at 0.1 µM | 89.9 |
| O=C(O)c1ccc(-c2c[nH]c3ncc(-c4ccccc4)cc23)cc1C1CCCC1 at 0.16 µM | 98.9 |
| Cc1cc(N2CCOCC2)cc2[nH]c(-c3c(NC[C@@H](O)c4cccc(Cl)c4)cc[nH]c3=O)nc12 at 0.2 µM | 94.9 |
| CN1CCN(c2ccc3nc(-c4c(N)c5c(F)cccc5[nH]c4=O)[nH]c3c2)CC1 at 0.1 µM | 111 |
| O=C(Nc1cccc(Cl)c1)Nc1ncc(CCNc2ncnc3ccsc23)s1 at 0.0008 µM | 97.9 |
| CC(C)(C)c1cnc(CSc2cnc(NC(=O)C3CCNCC3)s2)o1 at 0.01 µM | 88.4 |
| CS(=O)(=O)CCNCc1ccc(-c2ccc3ncnc(Nc4ccc(OCc5cccc(F)c5)c(Cl)c4)c3c2)o1 at 0.8 µM | 97.2 |
| O=C(CCCCCCC(=O)Nc1ccccc1)NO at 0.08 µM | 89.9 |
| Cc1nc(Nc2ncc(C(=O)Nc3c(C)cccc3Cl)s2)cc(N2CCN(CCO)CC2)n1 at 0.004 µM | 94.1 |

Some entries from above, unchanged:

Second drug,A101D
Cc1cc(N2CCOCC2)cc2[nH]c(-c3c(NC[C@@H](O)c4cccc(Cl)c4)cc[nH]c3=O)nc12 at 0.2 µM,94.9
O=C(CCCCCCC(=O)Nc1ccccc1)NO at 0.08 µM,89.9

Data from the primary screen of doi:10.1371/journal.pone.0140310, rounded.